Laboratory results as given in publication PMC9578396, “Intrinsic Antibacterial Activity of Xeruborbactam In Vitro: Assessing Spectrum and Mode of Action” (Antimicrobial Agents and Chemotherapy, 2022).

Tested on: K. pneumoniae strain KPM1026a
Experiment: Fluorescence microscopy, cellular morphology
Format: cell-based, Klebsiella pneumoniae
Conditions: treated at 1× and 2× MIC, 1 to 2 h, 30°C
Description: Single colonies of K. pneumoniae strain KPM1026a, A. baumannii strain ATCC 17978, and P. aeruginosa strain PAM1154 were picked from LB agar plates, inoculated in cation-adjusted Mueller-Hinton broth (CA-MHB), and incubated overnight at 30°C with rolling. Overnight cultures were diluted into fresh CA-MHB and incubated at 30°C, with rolling, until they reached an OD600 of ≈0.12 to 0.15 (equivalent to ~2 × 10^8 CFU/mL). Samples were then treated with compounds and incubated at 30°C, with rolling. After 1 or 2 h of treatment, cells were collected and stained with a dye mix containing FM4-64 (1 μg/mL), DAPI (4′,6-diamidino-2-phenylindole) (2 μg/mL), and SYTOX green (0.5 μM) (Molecular Probes, Invitrogen, or Thermo Fisher Scientific). Cells were transferred onto an agarose pad containing 1.2% agarose and 20% LB medium for microscopy. Microscopy was performed as previously described ([34]).

For `CC1=C(C(=O)O)N2C(=O)[C@@H](NC(=O)[C@H](N)c3ccccc3)[C@H]2SC1` [cephalexin], the cellular morphology was “filamentation”.
